Assay results from US20190202926A1.
These are yes or no findings as the source states them, for the method shown. Some binding calls cover weakened binding; strength is not graded here.

By UniProt entry, the sequences of proteins in these tests, tags left out. Residues count along the entry.
UniProt O00220, residues 24-239: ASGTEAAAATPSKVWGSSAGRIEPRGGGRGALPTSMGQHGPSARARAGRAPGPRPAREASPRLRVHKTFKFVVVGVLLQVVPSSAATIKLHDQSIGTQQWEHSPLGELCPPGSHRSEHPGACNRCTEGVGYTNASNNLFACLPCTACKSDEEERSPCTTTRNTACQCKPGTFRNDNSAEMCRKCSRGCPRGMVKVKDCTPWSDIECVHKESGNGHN

Legend:
[1] = target: sTRAIL-R1 (Peprotech cat nr 310-18) (human) (UniProt O00220); experiment: ELISA, coated sTRAIL-R1 2 µg/mL
[2] = target: sTRAIL-R1 (Peprotech cat nr 310-18) (human) (UniProt O00220); experiment: ELISA, coated sTRAIL-R1, FIG. 3

B1: IgG1-DR4-T1014G03-K409R (antibody, V domains shown)
VH: EVQLVQSGAEVKMPGASVKLSCRVSGDTFTAYFIHWVRQAPGQGLEWMGWFNPISGTAGSAEKFRGRVAMTRDTSISTAYMELNRLTFDDTAVYYCARQHRGNTFDPWGQGTLVTVSS
VL: QSALTQPASVSGSPGQSITISCTGTSSDIGAYKYVSWYQQHPGKAPKLVIYEVSNRPSGVSSRFSGSKSGQTASLTISGLQADDEADYYCNSYQGYNTWVFGGGTKVTVLG
[1]
  binding: binds
[2]
  binding: binds

B2: IgG1-DR4-T1014G03-K409R-E430G (antibody, V domains shown)
VH: B1 VH
VL: B1 VL
[1]
  binding: binds
[2]
  binding: binds
